Measured values published in the supplement of paper PMC8728848.
This is one part of the list.

What was measured:
Experiment in all cases: glycan array binding signal (z-score within array); higher = stronger binding
Details in all cases: glycan notation: IUPAC condensed, linker removed
[1] = target: GlcNAc(b1-4)GlcNAc(b1-4)GlcNAc(b1-4)GlcNAc(b1-4)GlcNAc
Procedure, shortened: (§1)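 Columns mapping to the same glycan were averaged after glycan names were converted to IUPAC-condensed notation. The data come from 3228 arrays in the Consortium for Functional Glycomics database, limited to those with an available protein sequence. Binding is reported as a within-array Z-score averaged across arrays of one protein sequence and across linkers.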

[2] = target: GlcNAc(b1-4)GlcNAc(b1-4)GlcNAc(b1-4)GlcNAc(b1-4)GlcNAc(b1-4)GlcNAc
Procedure, shortened: as §1

[3] = target: GlcNAc(b1-4)[GlcNAc(b1-6)]GalNAc
Procedure, shortened: as §1

[4] = target: GlcNAc(b1-6)Gal(b1-4)GlcNAc
Procedure, shortened: as §1

GlcNAc(b1-6)GalNAc = target: GlcNAc(b1-6)GalNAc
Procedure, shortened: as §1

[5] = target: GlcNAc6S(b1-3)Gal(b1-4)GlcNAc
Procedure, shortened: as §1

Kdn(a2-3)Gal(b1-3)GalNAc = target: Kdn(a2-3)Gal(b1-3)GalNAc
Procedure, shortened: as §1

Kdn(a2-3)Gal(b1-3)GlcNAc = target: Kdn(a2-3)Gal(b1-3)GlcNAc
Procedure, shortened: as §1

Kdn(a2-3)Gal(b1-4)Glc = target: Kdn(a2-3)Gal(b1-4)Glc
Procedure, shortened: as §1

Kdn(a2-3)Gal(b1-4)GlcNAc = target: Kdn(a2-3)Gal(b1-4)GlcNAc
Procedure, shortened: as §1

[6] = target: Kdn(a2-3)Gal(b1-4)[Fuc(a1-3)]GlcNAc
Procedure, shortened: as §1

Kdn(a2-6)Gal(b1-4)GlcNAc = target: Kdn(a2-6)Gal(b1-4)GlcNAc
Procedure, shortened: as §1

[7] = target: Man(a1-2)Man(a1-2)Man(a1-3)Man
Procedure, shortened: as §1

[8] = target: Man(a1-2)Man(a1-2)Man(a1-6)[Man(a1-3)]Man
Procedure, shortened: as §1

Man(a1-2)Man(a1-3)Man = target: Man(a1-2)Man(a1-3)Man
Procedure, shortened: as §1

[9] = target: Man(a1-2)Man(a1-3)[Man(a1-2)Man(a1-6)]Man
Procedure, shortened: as §1

[10] = target: Man(a1-2)Man(a1-3)[Man(a1-2)Man(a1-6)]Man(a1-6)[Man(a1-2)Man(a1-2)Man(a1-3)]Man
Procedure, shortened: as §1

[11] = target: Man(a1-2)Man(a1-3)[Man(a1-2)Man(a1-6)]Man(a1-6)[Man(a1-2)Man(a1-2)Man(a1-3)]Man(b1-4)GlcNAc(b1-4)GlcNAc
Procedure, shortened: as §1

[12] = target: Man(a1-2)Man(a1-3)[Man(a1-6)]Man(a1-6)[Man(a1-2)Man(a1-3)]Man(b1-4)GlcNAc(b1-4)GlcNAc
Procedure, shortened: as §1

[13] = target: Man(a1-2)Man(a1-6)[Man(a1-3)]Man(a1-6)[Man(a1-2)Man(a1-2)Man(a1-3)]Man
Procedure, shortened: as §1

[14] = target: Man(a1-2)Man(a1-6)[Man(a1-3)]Man(a1-6)[Man(a1-2)Man(a1-2)Man(a1-3)]Man(b1-4)GlcNAc(b1-4)GlcNAc
Procedure, shortened: as §1

Man(a1-3)[Man(a1-6)]Man = target: Man(a1-3)[Man(a1-6)]Man
Procedure, shortened: as §1

[15] = target: Man(a1-3)[Man(a1-6)]Man(a1-6)[Man(a1-2)Man(a1-3)]Man(b1-4)GlcNAc(b1-4)GlcNAc
Procedure, shortened: as §1

[16] = target: Man(a1-3)[Man(a1-6)]Man(a1-6)[Man(a1-3)]Man
Procedure, shortened: as §1

[17] = target: Man(a1-3)[Man(a1-6)]Man(a1-6)[Man(a1-3)]Man(b1-4)GlcNAc(b1-4)GlcNAc
Procedure, shortened: as §1

[18] = target: Man(a1-3)[Man(a1-6)]Man(b1-4)GlcNAc(b1-4)GlcNAc
Procedure, shortened: as §1

[19] = target: Man(a1-3)[Man(a1-6)]Man(b1-4)GlcNAc(b1-4)[Fuc(a1-6)]GlcNAc
Procedure, shortened: as §1

Man(a1-6)Man = target: Man(a1-6)Man
Procedure, shortened: as §1

Man(b1-4)GlcNAc = target: Man(b1-4)GlcNAc
Procedure, shortened: as §1

MurNAc(b1-4)GlcNAc = target: MurNAc(b1-4)GlcNAc
Procedure, shortened: as §1

Neu5Ac(a2-3)Gal = target: Neu5Ac(a2-3)Gal
Procedure, shortened: as §1

[20] = target: Neu5Ac(a2-3)Gal(b1-3)GalNAc
Procedure, shortened: as §1

[21] = target: Neu5Ac(a2-3)Gal(b1-3)GalNAc(b1-3)Gal(a1-4)Gal(b1-4)Glc
Procedure, shortened: as §1

[22] = target: Neu5Ac(a2-3)Gal(b1-3)GalNAc(b1-4)[Neu5Ac(a2-3)]Gal(b1-4)Glc
Procedure, shortened: as §1

[23] = target: Neu5Ac(a2-3)Gal(b1-3)GalNAc(b1-4)[Neu5Ac(a2-8)Neu5Ac(a2-3)]Gal(b1-4)Glc
Procedure, shortened: as §1

[24] = target: Neu5Ac(a2-3)Gal(b1-3)GalNAc6S
Procedure, shortened: as §1

[25] = target: Neu5Ac(a2-3)Gal(b1-3)GlcNAc
Procedure, shortened: as §1

B1: DC-Sign-R (Homo sapiens), Q9H2X3 (protein)
chain: MSDSKEPRVQQLGLLEEDPTTSGIRLFPRDFQFQQIHGHKSSTGCLGHGALVLQLLSFMLLAGVLVAILVQVSKVPSSLSQEQSEQDAIYQNLTQLKAAVGELSEKSKLQEIYQELTQLKAAVGELPEKSKLQEIYQELTRLKAAVGELPEKSKLQEIYQELTRLKAAVGELPEKSKLQEIYQELTRLKAAVGELPEKSKLQEIYQELTELKAAVGELPEKSKLQEIYQELTQLKAAVGELPDQSKQQQIYQELTDLKTAFERLCRHCPKDWTFFQGNCYFMSNSQRNWHDSVTACQEVRAQLVVIKTAEEQNFLQLQTSRSNRFSWMGLSDLNQEGTWQWVDGSPLSPSFQRYWNSGEPNNSGNEDCAEFSGSGWNDNRCDVDNYWICKKPAACFRDE
glycan array binding signal (z-score) [1]: -0.713 | glycan array binding signal (z-score) [2]: 0.678 | glycan array binding signal (z-score) [3]: -0.587 | glycan array binding signal (z-score) [4]: 0.351 | glycan array binding signal (z-score) (GlcNAc(b1-6)GalNAc): 0.4 | glycan array binding signal (z-score) [5]: -0.468 | glycan array binding signal (z-score) (Kdn(a2-3)Gal(b1-3)GalNAc): 0.814 | glycan array binding signal (z-score) (Kdn(a2-3)Gal(b1-3)GlcNAc): -0.743 | glycan array binding signal (z-score) (Kdn(a2-3)Gal(b1-4)Glc): -0.801 | glycan array binding signal (z-score) (Kdn(a2-3)Gal(b1-4)GlcNAc): -0.781 | glycan array binding signal (z-score) [6]: -0.014 | glycan array binding signal (z-score) (Kdn(a2-6)Gal(b1-4)GlcNAc): -0.396 | glycan array binding signal (z-score) [7]: 0.276 | glycan array binding signal (z-score) [8]: 0.786 | glycan array binding signal (z-score) (Man(a1-2)Man(a1-3)Man): -0.383 | glycan array binding signal (z-score) [9]: -0.087 | glycan array binding signal (z-score) [10]: 1.47 | glycan array binding signal (z-score) [11]: 0.241 | glycan array binding signal (z-score) [12]: 0.062 | glycan array binding signal (z-score) [13]: 0.308 | glycan array binding signal (z-score) [14]: -0.019 | glycan array binding signal (z-score) (Man(a1-3)[Man(a1-6)]Man): -0.857 | glycan array binding signal (z-score) [15]: 0.778 | glycan array binding signal (z-score) [16]: -0.538 | glycan array binding signal (z-score) [17]: -0.367 | glycan array binding signal (z-score) [18]: 0.143 | glycan array binding signal (z-score) [19]: 1.48 | glycan array binding signal (z-score) (Man(a1-6)Man): -0.63 | glycan array binding signal (z-score) (Man(b1-4)GlcNAc): -0.549 | glycan array binding signal (z-score) (MurNAc(b1-4)GlcNAc): 0.448 | glycan array binding signal (z-score) (Neu5Ac(a2-3)Gal): -0.528 | glycan array binding signal (z-score) [20]: -0.721 | glycan array binding signal (z-score) [21]: 0.241 | glycan array binding signal (z-score) [22]: -0.595 | glycan array binding signal (z-score) [23]: 0.106 | glycan array binding signal (z-score) [24]: 0.975 | glycan array binding signal (z-score) [25]: -0.608
